Source: PubChem BioAssay AID2685 (National Center for Advancing Translational Sciences (NCATS), 2010)
This is one part of the list. Shown are side measurements of this screen, not its main read-out; they come without a call. Most of these compounds were active or inconclusive in the main read-out, so they are no random draw. Potencies come from curve fits of mixed quality, noted in brackets.

Assay: qHTS Assay for Lipid Storage Modulators in Drosophila S3 Cells;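 as to cell number change: cells counted by Cell Tracker Red CMTPX staining in the red channel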
Settings: BODIPY lipid droplet fluorescence, 18-24 h; for cell number change: measured here: cell count max response, cells fed with added oleic acid
Procedure, shortened: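 Drosophila S3 cells got compounds at several concentrations plus oleic acid (400 uM solution). Laser-scanning cytometry with 488 nm excitation read lipid droplets at 500-530 nm and cells at 575-640 nm. Percent activity was relative to 20 uM Triacsin C.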

[1] = measured here: lipid fluorescence (Fed channel) AC50, cells fed with added oleic acid
[2] = measured here: cell number channel AC50, cells fed with added oleic acid

| Structure (SMILES) | cell number change [%] | AC50 [1] | AC50 [2] |
| --- | --- | --- | --- |
| O=C(O)c1ccc(/C=C/c2nc3sc4c(c3c(=O)[nH]2)CCC4)cc1 | -18.5 | – | – |
| CC(C)c1ccc(CNc2ccc3c(c2)ncn3C)cc1 | -8.15 | 25.9 µM [falling, single point] | – |
| Cc1ccc(-c2csc3nc[nH]c(=S)c23)cc1C | -23.1 | – | 6.51 µM [rising, single point] |
| CCN1CCN(CCCNC(=O)CS(=O)(=O)Cc2nc(-c3cccc(OC)c3)oc2C)CC1 | – | 6.51 µM [falling, single point] | – |
| CCOc1ccccc1NC(=O)CN(c1nccs1)S(=O)(=O)c1ccc(N)cc1 | 17.4 | 18.4 µM [rising, partial curve, poor fit] | – |
| Cc1ccc(C(=O)NC2CCCC2)s1 | -7.04 | 23.1 µM [rising, single point] | – |
| COc1ccc(N2CCN(S(=O)(=O)CCNC(=O)C3CCCCC3)CC2)cc1 | 13.7 | – | – |
| COc1ccc(-c2cc(C3CC3)nc(N)c2C#N)cc1 | – | 29.1 µM [rising, single point] | 0.731 µM [rising, single point] |
| CCC(CC)C(=O)Nc1cc(NC(=O)C(CC)CC)cc(C(=O)O)c1 | -171 | 18.4 µM [falling, partial curve] | 18.4 µM [falling, partial curve] |
| CC1(C)Cc2c(C#N)c(OCC(=O)c3ccc(Cl)cc3)nc(-c3ccoc3)c2CO1 | -2.44 | 0.731 µM [rising, full curve, poor fit] | – |
| CC(C)N(Cc1cc2ccccc2[nH]c1=O)C(=O)c1cccc([N+](=O)[O-])c1 | -11.1 | – | – |
| COc1ccc(NC(=O)/C(C#N)=C\c2ccc(N3CCOCC3)o2)cc1 | -45 | 23.1 µM [falling, single point] | 29.1 µM [falling, single point] |
| O=c1c(Cc2c(F)cccc2Cl)c(O)ccn1CCCN1CCOCC1 | 6.1 | – | – |
| CCCn1c(=O)c2ccccc2n2c(SCCNCCO)nnc12 | – | – | 0.0651 µM [rising, full curve, poor fit] |
| NC(=O)C1CCN(c2ccc(S(=O)(=O)N3CCCCC3)cn2)CC1 | 117 | 29.1 µM [rising, partial curve] | 29.1 µM [rising, partial curve] |
| CCOC(=O)CNC(=O)CSc1nc(N(C)C)nc(N2CCOCC2)n1 | 0.834 | 0.326 µM [rising, single point] | – |
| COc1ccc(C)cc1NC(=O)CSc1nnc(COc2ccc(Cl)cc2)n1Cc1ccco1 | -25.8 | 16.4 µM [falling, single point] | – |
| O=C(Nc1cccnc1)c1ccc(Cl)c(Cl)c1 | 11.4 | – | – |
| O=C(COC(=O)CNC(=O)c1ccc(Cl)c([N+](=O)[O-])c1)NCC1CCCO1 (stereo not drawn) | 21.6 | 4.11 µM [rising, full curve, poor fit] | – |
| O=C(c1cnc2ccccc2n1)N1CCN(c2ccc(C(F)(F)F)cn2)CC1 | 18 | 1.16 µM [rising, full curve] | – |
| COc1ccc(OCc2cc(C(=O)N3CCC(c4ccccc4)CC3)no2)c(Cl)c1 | – | 6.51 µM [falling, single point] | – |

| Structure (SMILES) | cell number change [%] | AC50 [1] | AC50 [2] |
| --- | --- | --- | --- |
| CCCN(CC(=O)Nc1ccccc1OC)C(=O)CSc1ccc(Br)cc1C | 33.8 | 0.517 µM [rising, full curve, poor fit] | 14.6 µM [rising, partial curve, poor fit] |
| CC(/C=C/c1ccco1)=N\NC(=O)c1cc(C)[nH]n1 | 79.6 | 18.4 µM [rising, partial curve] | 13 µM [rising, partial curve, poor fit] |
| CCNC(=O)C(=O)NCC(c1cccs1)S(=O)(=O)c1ccc(C)cc1 (stereo not drawn) | -15 | – | – |
| O=C(COc1ccc(Cl)cc1Cl)Nc1ccc(-c2ccc(N3CCOCC3)nn2)cc1 | – | – | 3.66 µM [rising, partial curve] |
| Cc1ccc(NS(=O)(=O)c2ccc3[nH]c(=O)[nH]c3c2)cc1 | -7.25 | – | – |
| CCC(C)NC(=O)CSc1nnc(-c2ccc(C(C)(C)C)cc2)n1C (stereo not drawn) | -30.6 | – | 0.103 µM [falling, full curve, poor fit] |
| O=C(NCc1ccccc1)C12CC3CC(CC(Cl)(C3)C1)C2 | -13.2 | 0.13 µM [falling, full curve, poor fit] | – |
| C/C=C/c1ccc(OCc2cc(=O)n3cc(C)ccc3n2)c(OC)c1 | 30 | 1.16 µM [falling, full curve] | 1.3 µM [falling, full curve] |
| CCOC(=O)CCCNC(=O)COC(=O)c1ccc(O)cc1 | -14.9 | 18.4 µM [falling, partial curve] | – |
| COCCOC(=O)C1=C(C)NC(=O)NC1c1cc2c(cc1Br)OCO2 (stereo not drawn) | 32.4 | – | 2.31 µM [rising, partial curve] |
| Cc1sc2ncnc(N3CCCCC3C)c2c1C (stereo not drawn) | -42.2 | – | 0.00651 µM [falling, full curve, poor fit] |
| CCOC(=O)Cn1nc(C)n(-c2ccccc2)c1=O | 27.4 | 23.1 µM [rising, single point] | – |
| O=S(=O)(/C=C/c1ccccc1)Nc1ccc2c(c1)OCO2 | 65.1 | 0.00517 µM [falling, full curve, poor fit] | 29.1 µM [rising, single point] |
| Cc1ccc(/C=C(\C#N)C(=O)NC(C)c2ccccc2)o1 (stereo not drawn) | 30.7 | – | 32.6 µM [rising, single point] |
| CCn1c(=O)c(=O)[nH]c2cc(C(=O)NCc3ccc(F)cc3)ccc21 | 9.17 | 7.31 µM [falling, partial curve, poor fit] | – |
| CC1CCCCC1NC(=S)Nc1ccc(SC(F)F)cc1 (stereo not drawn) | -60.5 | – | 29.1 µM [falling, single point] |
| CCN1/C(=C2\C(=O)N(C)C(=S)N2c2ccccc2)C=Cc2ccccc21 | 13.5 | 0.651 µM [rising, single point] | – |
| Cc1cc(NC(=O)CSc2nnc(NC(=O)C3CC(=O)N(c4ccccc4)C3)s2)no1 (stereo not drawn) | 16.7 | 0.259 µM [falling, full curve, poor fit] | – |
| CC(=O)c1ccc(NC(=O)COC(=O)c2nc(Cl)ccc2Cl)cc1 | -23.7 | – | 0.411 µM [falling, full curve, poor fit] |
| Cc1ccc(NC(=O)c2cccc3c2C(=O)N(C2CCCCC2)C3)c(Cl)c1 | 16.8 | 5.17 µM [rising, partial curve] | – |
| CN1C(=O)N(C)C2C1N(CN1CCCCC1)C(=O)N2CN1CCCCC1 (stereo not drawn) | 13.8 | – | – |

| Structure (SMILES) | cell number change [%] | AC50 [1] | AC50 [2] |
| --- | --- | --- | --- |
| CCN1C(=O)/C(=C2\SC(=S)N(NC(=O)c3ccccc3O)C2=O)c2ccccc21 | 6.94 | – | 0.651 µM [falling, full curve, poor fit] |
| CCOC(=O)c1ccc(Nc2ncnc3ccccc23)cc1 | – | 4.11 µM [rising, partial curve, poor fit] | 3.26 µM [rising, partial curve, poor fit] |
| Clc1ccc2nc(COc3ccccc3)[nH]c2c1 | -8.76 | 16.4 µM [falling, single point] | – |
| CCOC(=O)N1CCN(Cc2nc(-c3ccccc3)no2)CC1 | 4.19 | 20.6 µM [rising, single point] | – |
| Cc1cc(C(=O)Nc2cccc(C)c2C)n(-c2ccccc2)n1 | 12.8 | – | – |
| Cc1ccc(-c2nc(CCNC(=O)c3ccco3)cs2)cc1 | 115 | – | 20.6 µM [rising, partial curve] |
| COc1ccc(Cl)cc1NC(=S)N(Cc1cccnc1)Cc1ccco1 | -62.8 | 29.1 µM [falling, partial curve, poor fit] | 14.6 µM [falling, partial curve, poor fit] |
| CC(C)=N/N=C(\N)SCc1ccccc1 | 12.9 | 14.6 µM [rising, partial curve, poor fit] | – |
| COc1ccc(C(CNC(=O)CNC(=O)c2ccc(F)cc2)N2CCCC2)cc1 (stereo not drawn) | -14 | 29.1 µM [rising, single point] | – |
| COc1ccc(N2CCN(C(=O)c3cc(=O)c4cc(C)ccc4o3)CC2)cc1 | 15.1 | 29.1 µM [rising, single point] | – |
| O=C(CCn1c(=O)oc2ccccc21)Nc1nc2ccccc2s1 | 59.8 | – | 6.51 µM [rising, partial curve] |
| Cc1cc(C)cc(N=Cc2c(O)c3ccccc3oc2=O)c1 | 32.4 | – | 0.231 µM [rising, full curve, poor fit] |
| COc1cc(S(=O)(=O)N2CCCCC2)ccc1NC(=O)c1ccc(F)cc1 | 1.79 | 0.82 µM [rising, partial curve] | – |
| COc1ccc(N2CCC(CNC(=O)Nc3ccc(C)c(C)c3)C2)cc1 (stereo not drawn) | 35.3 | – | 23.1 µM [rising, single point] |
| CC(C)CC(=O)NC(C)C(c1cccs1)N1CCOCC1 (stereo not drawn) | -7.56 | 6.51 µM [falling, single point] | – |
| COc1ccc(N2CCN(S(=O)(=O)c3ccc(Cl)c(C(F)(F)F)c3)CC2)cc1 | -63.3 | 29.1 µM [falling, single point] | 29.1 µM [falling, single point] |
| O=C(Cc1ccc(F)cc1)Oc1ccc(C(=S)N2CCCC2)cc1 | -9.53 | – | – |
| CCN1CCCC1CNC(=O)C(=O)Nc1ccc(OC)cc1 (stereo not drawn) | -19.2 | 0.231 µM [rising, full curve, poor fit] | – |
| O=S(=O)(/N=C(/Nc1ccc(F)c(F)c1F)c1ccccc1)c1ccccc1 | 5.91 | 25.9 µM [falling, partial curve] | 2.91 µM [rising, single point] |

Ordered by formula weight (descending): 4 of the compounds above.

| Structure (SMILES) | cell number change [%] | AC50 [1] | AC50 [2] |
| --- | --- | --- | --- |
| CCN1C(=O)/C(=C2\SC(=S)N(NC(=O)c3ccccc3O)C2=O)c2ccccc21 | 6.94 | – | 0.651 µM [falling, full curve, poor fit] |
| CCN1CCCC1CNC(=O)C(=O)Nc1ccc(OC)cc1 (stereo not drawn) | -19.2 | 0.231 µM [rising, full curve, poor fit] | – |
| Clc1ccc2nc(COc3ccccc3)[nH]c2c1 | -8.76 | 16.4 µM [falling, single point] | – |
| CC(C)=N/N=C(\N)SCc1ccccc1 | 12.9 | 14.6 µM [rising, partial curve, poor fit] | – |
